In patent EP0605261B1, “Use of a flavone derivative as taste modifier and a method of modifying taste” (SAN-EI GEN F.F.I., INC., priority 1992, dated 1994):

Test: Sensory test: stimulative smell associated with acetic acid and viscosity (toothpaste with karaya gum)
Type: in vivo
Conditions: 0.0000001 part by weight of Compound 3 to 1 part, 9 panellers
Procedure: Sorbitol was heated to 70°C, followed by adding sodium saccharine and silica slowly thereto and by stirring well. Then, water previously heated to 70°C, karaya gum, sodium lauryl sulfate and sodium hydroxide were added sequentially while stirring. Finally, flavor was added thereto to prepare toothpaste as a control. Alternatively, flavone derivative (I)-containing toothpaste was prepared by adding 0.0000001 part by weight of Compound 3 of the flavone derivative (I) to 1 part by weight of similarly prepared toothpaste.
Sensory tests for obtained toothpaste were conducted by 9 panellers comprised of 6 males and 3 females.

COc1ccc(-c2cc(=O)c3c(OC)c(OC)c(OC)c(OC)c3o2)cc1 [Compound 3, 4',5,6,7,8-pentamethoxyflavone]
Viscosity: Those who sensed difference exists: 0 number of people | Viscosity: Those who sensed no difference: 9 number of people

Some results come without the dose or concentration used.
